Assay results published in paper PMC5855860.
These are yes or no findings as the source states them, for the method shown. Sequences can lack the tags named with a protein.

Amino acid sequences for entries named in this document (tags omitted).
UniProt P0A3V6: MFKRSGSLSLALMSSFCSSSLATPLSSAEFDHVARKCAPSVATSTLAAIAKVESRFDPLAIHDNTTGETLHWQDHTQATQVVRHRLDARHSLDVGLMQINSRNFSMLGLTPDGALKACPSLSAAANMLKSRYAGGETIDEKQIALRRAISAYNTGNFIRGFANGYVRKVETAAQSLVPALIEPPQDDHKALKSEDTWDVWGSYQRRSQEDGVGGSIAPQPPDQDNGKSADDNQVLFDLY
UniProt P0A3W2: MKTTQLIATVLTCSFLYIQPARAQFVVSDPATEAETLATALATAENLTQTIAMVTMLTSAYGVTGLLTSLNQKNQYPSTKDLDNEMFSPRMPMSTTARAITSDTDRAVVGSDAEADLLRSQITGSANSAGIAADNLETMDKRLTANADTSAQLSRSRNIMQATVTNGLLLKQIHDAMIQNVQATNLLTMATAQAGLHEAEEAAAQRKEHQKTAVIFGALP
UniProt P07543: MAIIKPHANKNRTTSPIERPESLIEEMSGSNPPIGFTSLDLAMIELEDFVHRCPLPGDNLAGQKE

How the values were obtained:
Assay in all cases: two-hybrid; LexA bait fusions (pSST91) and GAL4 activation domain prey fusions (pGAD424) in yeast CTY10-5d, 30 °C; colony colour on SD medium with X-Gal lacking leucine and tryptophan; the same strains also in liquid ONPG β-galactosidase assays
[1] = target: VirB1, yeast two-hybrid fusion (Agrobacterium tumefaciens) (UniProt P0A3V6)
[2] = target: VirB5, yeast two-hybrid fusion (Agrobacterium tumefaciens) (UniProt P0A3W2)
[3] = target: T1, VirD2, yeast two-hybrid fusion (Agrobacterium tumefaciens) (UniProt P06668)
T1 sequence: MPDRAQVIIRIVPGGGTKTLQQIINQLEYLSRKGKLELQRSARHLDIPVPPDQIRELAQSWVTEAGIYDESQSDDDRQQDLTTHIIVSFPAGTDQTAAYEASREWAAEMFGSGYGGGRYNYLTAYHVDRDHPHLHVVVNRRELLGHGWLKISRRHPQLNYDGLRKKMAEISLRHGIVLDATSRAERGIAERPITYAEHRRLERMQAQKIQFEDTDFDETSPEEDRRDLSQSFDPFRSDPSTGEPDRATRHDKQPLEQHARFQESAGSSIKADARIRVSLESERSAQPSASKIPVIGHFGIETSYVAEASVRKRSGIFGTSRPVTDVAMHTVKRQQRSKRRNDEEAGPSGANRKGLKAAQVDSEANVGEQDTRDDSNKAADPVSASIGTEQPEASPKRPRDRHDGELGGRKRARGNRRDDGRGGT

[4] = target: VirE1, yeast two-hybrid fusion (Agrobacterium tumefaciens) (UniProt P07543)
[5] = target: T2, VirF, yeast two-hybrid fusion (Agrobacterium tumefaciens) (UniProt P15597)
T2 sequence: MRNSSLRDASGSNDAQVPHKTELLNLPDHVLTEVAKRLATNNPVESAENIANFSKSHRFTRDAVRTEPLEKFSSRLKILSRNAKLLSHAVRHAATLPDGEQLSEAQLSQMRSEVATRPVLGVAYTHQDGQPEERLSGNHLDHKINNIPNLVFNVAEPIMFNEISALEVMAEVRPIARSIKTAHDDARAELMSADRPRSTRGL

[6] = target: T3, RTNLB5, yeast two-hybrid fusion (Arabidopsis thaliana) (UniProt O82352)
T3 sequence: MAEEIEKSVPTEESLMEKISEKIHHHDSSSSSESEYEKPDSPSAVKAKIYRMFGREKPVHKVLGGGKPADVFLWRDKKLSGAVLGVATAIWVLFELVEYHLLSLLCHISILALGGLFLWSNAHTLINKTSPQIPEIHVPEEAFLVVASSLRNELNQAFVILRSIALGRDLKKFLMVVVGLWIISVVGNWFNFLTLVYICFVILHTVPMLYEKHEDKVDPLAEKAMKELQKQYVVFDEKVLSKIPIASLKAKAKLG

[7] = target: T4, RTNLB7, yeast two-hybrid fusion (Arabidopsis thaliana) (UniProt Q9M145)
T4 sequence: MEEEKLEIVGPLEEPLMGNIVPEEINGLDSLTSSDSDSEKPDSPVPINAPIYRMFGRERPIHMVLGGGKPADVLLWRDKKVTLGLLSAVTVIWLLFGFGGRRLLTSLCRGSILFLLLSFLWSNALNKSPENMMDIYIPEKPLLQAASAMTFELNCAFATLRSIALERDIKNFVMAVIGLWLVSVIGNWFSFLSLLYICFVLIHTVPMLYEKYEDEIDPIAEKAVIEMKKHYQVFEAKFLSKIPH

[8] = target: T5, RTNLB8, yeast two-hybrid fusion (Arabidopsis thaliana) (UniProt Q9SS37)
T5 sequence: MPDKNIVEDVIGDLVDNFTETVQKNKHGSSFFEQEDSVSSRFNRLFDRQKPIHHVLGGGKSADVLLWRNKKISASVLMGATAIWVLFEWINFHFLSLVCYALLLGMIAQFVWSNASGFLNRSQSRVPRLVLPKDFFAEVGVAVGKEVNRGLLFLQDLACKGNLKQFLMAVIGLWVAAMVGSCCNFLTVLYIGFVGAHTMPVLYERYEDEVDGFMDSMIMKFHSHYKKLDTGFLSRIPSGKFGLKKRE

[9] = target: T6, reticulon-like protein B1 (RTNLB1), yeast two-hybrid fusion (Arabidopsis thaliana) (UniProt Q9SUR3)
T6 sequence: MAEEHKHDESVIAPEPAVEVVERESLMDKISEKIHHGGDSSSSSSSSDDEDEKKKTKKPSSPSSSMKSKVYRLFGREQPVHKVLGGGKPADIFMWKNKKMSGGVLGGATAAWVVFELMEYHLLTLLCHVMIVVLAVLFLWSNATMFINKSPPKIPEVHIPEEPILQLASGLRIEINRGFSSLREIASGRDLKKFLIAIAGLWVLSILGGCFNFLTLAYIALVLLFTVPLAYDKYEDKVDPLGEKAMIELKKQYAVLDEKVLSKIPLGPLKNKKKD

[10] = target: T7, reticulon-like protein B2 (RTNLB2), yeast two-hybrid fusion (Arabidopsis thaliana) (UniProt Q9SUT9)
T7 sequence: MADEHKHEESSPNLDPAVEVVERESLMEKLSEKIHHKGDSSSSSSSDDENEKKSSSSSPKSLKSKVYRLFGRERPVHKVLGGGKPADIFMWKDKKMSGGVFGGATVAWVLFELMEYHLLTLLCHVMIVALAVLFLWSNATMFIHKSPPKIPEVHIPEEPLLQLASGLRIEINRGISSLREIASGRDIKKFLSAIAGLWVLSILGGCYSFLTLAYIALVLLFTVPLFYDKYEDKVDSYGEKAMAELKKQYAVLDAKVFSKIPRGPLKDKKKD

[11] = target: T8, reticulon-like protein B4 (RTNLB4), yeast two-hybrid fusion (Arabidopsis thaliana) (UniProt Q9FFS0)
T8 sequence: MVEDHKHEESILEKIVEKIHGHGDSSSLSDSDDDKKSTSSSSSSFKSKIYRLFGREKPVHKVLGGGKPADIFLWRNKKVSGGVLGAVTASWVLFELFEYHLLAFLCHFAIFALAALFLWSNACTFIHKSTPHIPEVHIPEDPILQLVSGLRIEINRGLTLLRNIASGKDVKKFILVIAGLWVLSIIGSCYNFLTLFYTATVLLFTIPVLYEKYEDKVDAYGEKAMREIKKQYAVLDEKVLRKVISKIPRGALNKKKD

[12] = target: T9, RTNLB6, yeast two-hybrid fusion (Arabidopsis thaliana) (UniProt Q6DBN4)
T9 sequence: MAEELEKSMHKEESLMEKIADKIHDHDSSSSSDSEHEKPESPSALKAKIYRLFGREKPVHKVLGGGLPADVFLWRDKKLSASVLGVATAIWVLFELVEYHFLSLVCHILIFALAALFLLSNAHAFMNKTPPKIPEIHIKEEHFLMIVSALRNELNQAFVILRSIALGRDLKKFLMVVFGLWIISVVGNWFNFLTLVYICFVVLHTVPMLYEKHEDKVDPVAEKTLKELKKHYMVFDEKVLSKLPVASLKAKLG

Measured: binding

RTNLB5, yeast two-hybrid fusion (from UniProt O82352 1-255)
no binding: [1] | [2] | [3] | [4] | [5]

RTNLB7, yeast two-hybrid fusion (from UniProt Q9M145 1-244)
no binding: [1] | [2] | [3] | [4] | [5]

B1: RTNLB6, yeast two-hybrid fusion (protein, UniProt Q6DBN4 1-253)
chain: T9 sequence
not listed: [12]
no binding: all other assays above

B2: RTNLB8, yeast two-hybrid fusion (protein, UniProt Q9SS37 1-247)
chain: T5 sequence
not listed: [10] | [11]
no binding: all other assays above

B3: RETICULON-LIKE3 (RTNLB3), yeast two-hybrid fusion (protein, UniProt Q9SH59 1-255)
chain: MAEEHKHEESIMEKISEKIHGHDDSSSSSSDSDDDKNSASLKTKIYRLFGREQPLHKLFGGGKPADIFLWRNKKVSGGVLGAATVSWILFELLEYNLLTLFGHISILALAVLFLWSSASTFIHKSPLHIPEVHIPEDVVLQLASGLRIEINRGFTVLRDIASGRDLKKFLLVIAGLWVLSKVGSSCNFLTLIYIATVLLFTIPVLYEKYEDKVDDFGEKAMREIKKQYVEFDVKVLSKVMSKIPKGAFAFIKKKD
no binding: [6] | [7] | [1] | [2] | [3] | [4] | [5]
